Experimental data reported in paper PMC6030168.
Results are given in words; binding and its absence hold for the method and conditions named. In cells and extracts the contact can be indirect. Some results given as binding are weak or reduced against the parent protein; the word gives no strength.

Biological target: T1, β-catenin (human (endogenous in SW480)), P35222
T1 chain: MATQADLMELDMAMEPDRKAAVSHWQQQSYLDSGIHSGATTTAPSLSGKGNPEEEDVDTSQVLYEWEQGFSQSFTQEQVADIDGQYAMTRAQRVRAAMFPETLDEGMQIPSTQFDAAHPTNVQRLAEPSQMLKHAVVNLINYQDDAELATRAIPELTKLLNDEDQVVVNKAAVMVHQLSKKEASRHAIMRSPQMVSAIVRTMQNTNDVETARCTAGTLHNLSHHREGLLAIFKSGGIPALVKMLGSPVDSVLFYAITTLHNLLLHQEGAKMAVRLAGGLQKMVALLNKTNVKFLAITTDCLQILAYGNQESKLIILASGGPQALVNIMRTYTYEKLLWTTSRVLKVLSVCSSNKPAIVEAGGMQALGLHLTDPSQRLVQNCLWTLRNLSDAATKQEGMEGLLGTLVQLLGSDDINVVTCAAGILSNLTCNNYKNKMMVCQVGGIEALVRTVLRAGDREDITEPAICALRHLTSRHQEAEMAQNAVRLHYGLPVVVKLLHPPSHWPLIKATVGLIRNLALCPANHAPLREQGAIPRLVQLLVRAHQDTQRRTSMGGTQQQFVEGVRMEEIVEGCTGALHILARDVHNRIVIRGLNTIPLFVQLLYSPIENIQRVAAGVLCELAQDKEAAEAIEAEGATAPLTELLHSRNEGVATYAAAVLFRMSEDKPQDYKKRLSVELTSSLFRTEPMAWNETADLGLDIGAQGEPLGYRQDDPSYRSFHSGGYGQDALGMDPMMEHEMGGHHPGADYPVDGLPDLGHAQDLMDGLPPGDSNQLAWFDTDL
Assay: co-IP; immunoprecipitation (Supplementary S4A); cells and bait not stated in the text shown
Details: remark: other sources report otherwise

binding: binds
B1: LIM domain kinase 1 (LIMK1), P53667 1-647 (protein)
chain: MRLTLLCCTWREERMGEEGSELPVCASCGQRIYDGQYLQALNADWHADCFRCCDCSASLSHQYYEKDGQLFCKKDYWARYGESCHGCSEQITKGLVMVAGELKYHPECFICLTCGTFIGDGDTYTLVEHSKLYCGHCYYQTVVTPVIEQILPDSPGSHLPHTVTLVSIPASSHGKRGLSVSIDPPHGPPGCGTEHSHTVRVQGVDPGCMSPDVKNSIHVGDRILEINGTPIRNVPLDEIDLLIQETSRLLQLTLEHDPHDTLGHGLGPETSPLSSPAYTPSGEAGSSARQKPVLRSCSIDRSPGAGSLGSPASQRKDLGRSESLRVVCRPHRIFRPSDLIHGEVLGKGCFGQAIKVTHRETGEVMVMKELIRFDEETQRTFLKEVKVMRCLEHPNVLKFIGVLYKDKRLNFITEYIKGGTLRGIIKSMDSQYPWSQRVSFAKDIASGMAYLHSMNIIHRDLNSHNCLVRENKNVVVADFGLARLMVDEKTQPEGLRSLKKPDRKKRYTVVGNPYWMAPEMINGRSYDEKVDVFSFGIVLCEIIGRVNADPDYLPRTMDFGLNVRGFLDRYCPPNCPPSFFPITVRCCDLDPEKRPSFVKLEHWLETLRMHLAGHLPLGPQLEQLDRGFWETYRRGESGLPAHPEVPD
